{"source": "patent US20260234233A1", "about": "(PETMEDIX, published 2026)", "binders": {"B1": {"name": "PetML119-E75T (Canine p75NTR ECD E75T-canine IgGB wt Fc) (Fc fusion)", "chain": "KEACPTGLYTHSGECCKACNLGEGVAQPCGANQTVCEPCLDSVTFSDVVSATEPCKPCTECVGLQSMSAPCVEATDAVCRCAYGYYQDETTGRCEACRVCEAGSGLVFSCQDRQNTVCEECPDGTYSDEANHVDPCLPCTVCEDTERQLRECTRWADAECEEIPGRGGGGRENGRVPRPPDCPKCPAPEMLGGPSVFIFPPKPKDTLLIARTPEVTCVVVDLDPEDPEVQISWFVDGKQMQTAKTQPREEQFNGTYRVVSVLPIGHQDWLKGKQFTCKVNNKALPSPIERTISKARGQAHQPSVYVLPPSREELSKNTVSLTCLIKDFFPPDIDVEWQSNGQQEPESKYRTTPPQLDEDGSYFLYSKLSVDKSRWQRGDTFICAVMHEALHNHYTQKSLSHSPGK", "notes": "The signal peptide (first 19 residues) is left out as for PetML119"}}, "target": "T1, Human NT-4 (human, UniProt P34130 81-210)", "T1 construct": "mature; also called hNT-4", "T1 sequence (looked up)": "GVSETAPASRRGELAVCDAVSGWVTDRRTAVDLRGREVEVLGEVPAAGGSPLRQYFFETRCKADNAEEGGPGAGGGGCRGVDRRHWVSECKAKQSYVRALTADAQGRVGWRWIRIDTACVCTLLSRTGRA", "test": "SPR, Biacore 8K, binder captured on Protein A chip, ligand as analyte", "note": "Results are given in words; binding and its absence hold for the method and conditions named. Some results given as binding are weak or reduced against the parent protein; the word gives no strength. Tags and fused reporters may be left off the sequences shown."}
{"binder": "B1", "values": [{"measurement": "binding", "result": "binds"}]}
